Laboratory results taken from patent publication US20110129457A1.
Results are given in words; binding and its absence hold for the method and conditions named. A result given as binding can be weak or reduced; the word gives no strength. For some of these results: Tags and fused reporters may be left off the sequences shown.

Protein sequences, listed by entry. Tags and fused reporters are not part of them. Lines headed by an entry give the natural chain unless they say otherwise; changes in a name come on top.
UniProt Q15465: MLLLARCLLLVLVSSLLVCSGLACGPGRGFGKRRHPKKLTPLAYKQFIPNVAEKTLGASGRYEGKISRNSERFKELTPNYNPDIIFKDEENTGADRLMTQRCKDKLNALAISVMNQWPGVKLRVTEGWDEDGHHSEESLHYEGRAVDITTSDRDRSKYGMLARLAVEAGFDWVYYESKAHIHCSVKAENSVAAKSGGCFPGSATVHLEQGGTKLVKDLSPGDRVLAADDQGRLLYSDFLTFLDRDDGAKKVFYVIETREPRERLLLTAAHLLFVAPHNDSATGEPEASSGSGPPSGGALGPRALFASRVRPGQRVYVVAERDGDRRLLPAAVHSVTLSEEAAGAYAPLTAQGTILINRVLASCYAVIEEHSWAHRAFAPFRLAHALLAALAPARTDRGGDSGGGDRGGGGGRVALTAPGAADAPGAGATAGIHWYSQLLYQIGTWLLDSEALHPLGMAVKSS

Assays:
[1] = biological target: Shh (residues 29-197) lacking the His6-Tag, after thrombin treatment (human) (UniProt Q15465); experiment: NMR, 13C,1H-HSQC of the histidine side chains of Shh alone and with 2 mM Hhip L2 peptide
[2] = biological target: Shh (residues 29-197) lacking the His6-Tag, after thrombin treatment (human) (UniProt Q15465); experiment: NMR, 13C,1H-HSQC of the histidine side chains of Shh; 2 mM Hhip L2 peptide added to Shh with 2 mM Ptch1 L2-like peptide (the competitor)
[3] = biological target: Shh (residues 29-197) lacking the His6-Tag, after thrombin treatment (human) (UniProt Q15465); experiment: NMR, 15N,1H-HSQC of 90 µM 15N-Shh alone and with 2 mM unlabeled cyclic Hhip L2 peptide
[4] = biological target: Shh (residues 29-197) lacking the His6-Tag, after thrombin treatment (human) (UniProt Q15465); experiment: NMR 13C,1H-HSQC of Shh histidine side chains, 2 mM peptide
[5] = biological target: Shh (residues 29-197) lacking the His6-Tag, after thrombin treatment (human) (UniProt Q15465); experiment: NMR 15N,1H-HSQC, 90 µM 15N-Shh with 2 mM peptide
[6] = biological target: Shh (residues 29-197) lacking the His6-Tag, after thrombin treatment (human) (UniProt Q15465); experiment: NMR, 15N,1H-HSQC of 90 µM 15N-Shh alone and with 2 mM unlabeled cyclic Ptch L2 peptide
[7] = biological target: Shh (residues 29-197) lacking the His6-Tag, after thrombin treatment (human) (UniProt Q15465); experiment: NMR, 13C,1H-HSQC of the histidine side chains of Shh alone and with 2 mM Ptch1 L2-like peptide
[8] = biological target: Shh (residues 29-197) lacking the His6-Tag, after thrombin treatment (human) (UniProt Q15465); experiment: size exclusion chromatography of the complex

Measured: binding

GCGMITLDDMEEMDGLSDFCG (disulfide-containing cyclic peptide) [Hhip1β12 L2 peptide, disulfide-containing cyclic (…)]
binds: [1] | [2] | [3] | [4] | [5]

GCQLTKQRLVDADGIINPCG (disulfide-containing cyclic peptide) [Ptch L2 peptide, disulfide-containing cyclic (…)]
binds: [6] | [7] | [4] | [5]

B1: Hhip1β12 (β-propeller-EGF1-EGF2, residues 193-667), C-terminal His6-tag (receptor)
chain: SNYLDQMEEYDKVEEISRKHKHNCFCIQEVVSGLRQPVGALHSGDGSQRLFILEKEGYVKILTPEGEIFKEPYLDIHKLVQSGIKGGDERGLLSLAFHPNYKKNGKLYVSYTTNQERWAIGPHDHILRVVEYTVSRKNPHQVDLRTARVFLEVAELHRKHLGGQLLFGPDGFLYIILGDGMITLDDMEEMDGLSDFTGSVLRLDVDTDMCNVPYSIPRSNPHFNSTNQPPEVFAHGLHDPGRCAVDRHPTDININLTILCSDSNGKNRSSARILQIIKGKDYESEPSLLEFKPFSNGPLVGGFVYRGCQSERLYGSYVFGDRNGNFLTLQQSPVTKQWQEKPLCLGTSGSCRGYFSGHILGFGEDELGEVYILSSSKSMTQTHNGKLYKIVDPKRPLMPEECRATVQPAQTLTSECSRLCRNGYCTPTGKCCCSPGWEGDFCRTAKCEPACRHGGVCVRPNKCLCKKGYLGPQCEHHHHHH
binds: [8]
